Article PMC3994028
Where a chain is given by its changes, count along the chain named. These are yes or no findings as the source states them, for the method shown. In cells and extracts the contact can be indirect. Some results given as binding are weak or reduced against the parent protein; the word gives no strength. For some of these results: Tags and fused reporters may be left off the sequences shown. Values belong to the molecule of their own block, whether it stands above or below them.

What was measured:
[1] = target: T1, βPIX (endogenous, PC12 cells) (rat (endogenous in PC12)) (UniProt O55043); experiment: co-IP; PC12 lysates immunoprecipitated with anti-βPIX monoclonal antibody, immunoblotted for NM IIB; cells transfected with GFP (control), GFP-βPIX DH^wt or GFP-βPIX DH^mt as competitor; also cells stimulated with 100 ng/ml NGF
T1 sequence: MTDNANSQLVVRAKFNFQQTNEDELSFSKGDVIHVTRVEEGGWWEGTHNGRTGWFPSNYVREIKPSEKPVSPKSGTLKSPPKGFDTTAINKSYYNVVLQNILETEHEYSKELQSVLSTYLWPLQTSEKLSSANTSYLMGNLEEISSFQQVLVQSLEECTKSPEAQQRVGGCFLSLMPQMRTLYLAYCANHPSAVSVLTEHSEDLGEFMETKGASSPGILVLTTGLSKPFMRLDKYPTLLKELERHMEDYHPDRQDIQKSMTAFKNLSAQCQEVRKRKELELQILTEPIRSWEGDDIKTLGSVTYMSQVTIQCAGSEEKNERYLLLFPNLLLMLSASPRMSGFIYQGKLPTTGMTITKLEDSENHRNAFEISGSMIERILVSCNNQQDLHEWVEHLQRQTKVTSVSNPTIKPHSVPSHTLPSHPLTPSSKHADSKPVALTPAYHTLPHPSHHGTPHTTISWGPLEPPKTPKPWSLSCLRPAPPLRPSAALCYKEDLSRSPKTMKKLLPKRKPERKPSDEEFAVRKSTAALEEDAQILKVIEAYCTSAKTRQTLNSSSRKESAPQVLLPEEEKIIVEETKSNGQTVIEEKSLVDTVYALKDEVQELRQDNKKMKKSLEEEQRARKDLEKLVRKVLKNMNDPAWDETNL

[2] = target: non-muscle myosin IIB (NM IIB) (rat (endogenous in hippocampal neurons of Sprague-Dawley rats and in PC12)) (UniProt Q9JLT0); experiment: co-IP; lysates of PC12 cells transfected with GFP-Cdc42V12 (constitutively active) for 24 h; immunoprecipitated with anti-NM IIB antibody, immunoblotted for βPIX, kalirin, ITSN
[3] = target: non-muscle myosin IIB (NM IIB) (rat (endogenous in hippocampal neurons of Sprague-Dawley rats and in PC12)) (UniProt Q9JLT0); experiment: co-IP; PC12 lysates immunoprecipitated with anti-NM IIB antibody, immunoblotted for βPIX, kalirin, ITSN; cells treated with 50 µM BBS for the indicated times, transfected with GFP or GFP-RhoAV14, or stimulated with 100 ng/ml NGF (with GFP-Cdc42 WT or N17, GFP-Rac1, Myc-PAK1 WT or DN)
[4] = target: non-muscle myosin IIB (NM IIB) (rat (endogenous in hippocampal neurons of Sprague-Dawley rats and in PC12)) (UniProt Q9JLT0); experiment: proximity ligation; Duolink in situ PLA on fixed, permeabilised cultured hippocampal neurons (growth cones); primary antibodies against βPIX (or kalirin) and NM IIB, or βPIX and GIT; with or without 50 µM BBS for 15 or 30 min
[5] = target: non-muscle myosin IIB (NM IIB) (rat (endogenous in hippocampal neurons of Sprague-Dawley rats and in PC12)) (UniProt Q9JLT0); experiment: co-IP; PC12 lysates immunoprecipitated with anti-βPIX monoclonal antibody, immunoblotted for NM IIB; cells transfected with GFP (control), GFP-βPIX DH^wt or GFP-βPIX DH^mt as competitor; also cells stimulated with 100 ng/ml NGF
[6] = target: non-muscle myosin IIB (NM IIB) (rat (endogenous in hippocampal neurons of Sprague-Dawley rats and in PC12)) (UniProt Q9JLT0); experiment: co-IP; PC12 lysates immunoprecipitated with anti-Tiam1 antibody, immunoblotted for NM IIB; cells transfected with GFP (control), GFP-Tiam1 DH^wt or GFP-Tiam1 DH^mt as competitor
[7] = target: non-muscle myosin IIB (NM IIB) (rat (endogenous in hippocampal neurons of Sprague-Dawley rats and in PC12)) (UniProt Q9JLT0); experiment: co-IP; PC12 lysates immunoprecipitated with anti-NM IIB antibody, immunoblotted for βPIX, kalirin, ITSN; cells treated with 50 µM BBS for the indicated times, transfected with GFP or GFP-RhoAV14, or stimulated with 100 ng/ml NGF (with GFP-Cdc42 WT or N17, GFP-Rac1, Myc-PAK1 WT or DN); remark: listed apart in the source

B1: GFP-βPIX DH^wt (domain or fragment, UniProt O55043 100-276)
chain: NILETEHEYSKELQSVLSTYLWPLQTSEKLSSANTSYLMGNLEEISSFQQVLVQSLEECTKSPEAQQRVGGCFLSLMPQMRTLYLAYCANHPSAVSVLTEHSEDLGEFMETKGASSPGILVLTTGLSKPFMRLDKYPTLLKELERHMEDYHPDRQDIQKSMTAFKNLSAQCQEVRKR
binding [5]: binds

B2: GFP-βPIX DH^mt (domain or fragment, UniProt O55043 100-276)
chain: B1 chain with L139R, L140R
binding [5]: binds

B3: GFP-Tiam1 DH^wt (domain or fragment, UniProt Q60610 1048-1239)
chain: LLETERTYVKDLNCLMERYLKPLQKETFLTQDELDVLFGNLTEMVEFQVEFLKTLEDGVRLVPDLEKLEKVDQFKKVLFSLGGSFLYYADRFKLYSAFCASHTKVPKVLVKAKTDTAFKAFLDAQNPRQQHSSTLESYLIKPIQRVLKYPLLLRELFALTDAESEEHYHLDVAIKTMNKVASHINEMQKIHE
binding [6]: binds

B4: GFP-Tiam1 DH^mt (domain or fragment, UniProt Q60610 1048-1239)
chain: B3 chain with L1R, L2S
binding [6]: binds

The next lines start with the values.

binding [1]: binds
Molecule: non-muscle myosin IIB (NM IIB) (from UniProt Q9JLT0 1-1976)

binding [2]: binds weakly | binding [3]: binds | binding [4]: binds
Molecule: kalirin (from UniProt P97924 1-2959)

binding [2]: binds weakly | binding [7]: binds
B5: βPIX (endogenous, PC12 cells) (protein, UniProt O55043 1-646)
chain: T1 sequence
